No constants are given. Whether binding was seen depends on the method and setting. In cells and extracts the contact can be indirect. Some results given as binding are weak or reduced against the parent protein; the word gives no strength.
Legend:
Experiment in all cases: co-IP; whole-cell lysates in RIPA buffer (50 mM Tris-HCl pH 8.0, 150 mM NaCl, 1% NP-40, 1 mM EDTA, 0.5% sodium deoxycholate, 0.1% SDS); HA- or V5-conjugated beads 4 hours at 4°C; 3 washes; Western blotting; MDA-MB-231 or HCC1806 cells
[1] = molecular target: HA-tagged KIF20A (kinesin family member 20A) (UniProt O95235)
[2] = molecular target: V5-tagged SMARCA4 (UniProt P51532)
[3] = molecular target: V5-tagged KIF20A (kinesin family member 20A) (UniProt O95235)

Protein sequences, listed by entry. Tags and fused reporters are not part of them.
UniProt O95235: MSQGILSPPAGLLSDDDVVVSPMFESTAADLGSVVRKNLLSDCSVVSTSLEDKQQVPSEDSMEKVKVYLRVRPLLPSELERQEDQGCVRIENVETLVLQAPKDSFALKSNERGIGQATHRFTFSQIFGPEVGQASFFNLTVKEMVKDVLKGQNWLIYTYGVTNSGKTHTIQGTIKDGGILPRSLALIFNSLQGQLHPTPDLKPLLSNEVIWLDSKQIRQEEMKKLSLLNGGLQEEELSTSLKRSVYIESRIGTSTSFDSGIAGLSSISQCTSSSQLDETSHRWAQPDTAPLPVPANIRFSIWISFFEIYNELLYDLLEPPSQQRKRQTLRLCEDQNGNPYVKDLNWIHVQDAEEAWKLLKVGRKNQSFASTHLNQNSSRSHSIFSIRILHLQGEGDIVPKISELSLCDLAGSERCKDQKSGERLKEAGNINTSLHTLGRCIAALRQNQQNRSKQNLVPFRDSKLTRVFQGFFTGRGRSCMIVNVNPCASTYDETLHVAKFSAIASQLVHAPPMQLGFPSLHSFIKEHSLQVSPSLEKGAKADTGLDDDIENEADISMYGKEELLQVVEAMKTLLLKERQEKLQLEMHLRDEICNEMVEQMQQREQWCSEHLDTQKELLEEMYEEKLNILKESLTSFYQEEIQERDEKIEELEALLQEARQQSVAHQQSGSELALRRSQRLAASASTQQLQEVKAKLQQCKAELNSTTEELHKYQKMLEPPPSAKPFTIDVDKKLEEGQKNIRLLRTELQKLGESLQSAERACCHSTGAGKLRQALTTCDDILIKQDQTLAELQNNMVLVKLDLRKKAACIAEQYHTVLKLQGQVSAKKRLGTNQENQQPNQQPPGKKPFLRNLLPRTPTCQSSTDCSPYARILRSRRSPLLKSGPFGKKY
UniProt P51532: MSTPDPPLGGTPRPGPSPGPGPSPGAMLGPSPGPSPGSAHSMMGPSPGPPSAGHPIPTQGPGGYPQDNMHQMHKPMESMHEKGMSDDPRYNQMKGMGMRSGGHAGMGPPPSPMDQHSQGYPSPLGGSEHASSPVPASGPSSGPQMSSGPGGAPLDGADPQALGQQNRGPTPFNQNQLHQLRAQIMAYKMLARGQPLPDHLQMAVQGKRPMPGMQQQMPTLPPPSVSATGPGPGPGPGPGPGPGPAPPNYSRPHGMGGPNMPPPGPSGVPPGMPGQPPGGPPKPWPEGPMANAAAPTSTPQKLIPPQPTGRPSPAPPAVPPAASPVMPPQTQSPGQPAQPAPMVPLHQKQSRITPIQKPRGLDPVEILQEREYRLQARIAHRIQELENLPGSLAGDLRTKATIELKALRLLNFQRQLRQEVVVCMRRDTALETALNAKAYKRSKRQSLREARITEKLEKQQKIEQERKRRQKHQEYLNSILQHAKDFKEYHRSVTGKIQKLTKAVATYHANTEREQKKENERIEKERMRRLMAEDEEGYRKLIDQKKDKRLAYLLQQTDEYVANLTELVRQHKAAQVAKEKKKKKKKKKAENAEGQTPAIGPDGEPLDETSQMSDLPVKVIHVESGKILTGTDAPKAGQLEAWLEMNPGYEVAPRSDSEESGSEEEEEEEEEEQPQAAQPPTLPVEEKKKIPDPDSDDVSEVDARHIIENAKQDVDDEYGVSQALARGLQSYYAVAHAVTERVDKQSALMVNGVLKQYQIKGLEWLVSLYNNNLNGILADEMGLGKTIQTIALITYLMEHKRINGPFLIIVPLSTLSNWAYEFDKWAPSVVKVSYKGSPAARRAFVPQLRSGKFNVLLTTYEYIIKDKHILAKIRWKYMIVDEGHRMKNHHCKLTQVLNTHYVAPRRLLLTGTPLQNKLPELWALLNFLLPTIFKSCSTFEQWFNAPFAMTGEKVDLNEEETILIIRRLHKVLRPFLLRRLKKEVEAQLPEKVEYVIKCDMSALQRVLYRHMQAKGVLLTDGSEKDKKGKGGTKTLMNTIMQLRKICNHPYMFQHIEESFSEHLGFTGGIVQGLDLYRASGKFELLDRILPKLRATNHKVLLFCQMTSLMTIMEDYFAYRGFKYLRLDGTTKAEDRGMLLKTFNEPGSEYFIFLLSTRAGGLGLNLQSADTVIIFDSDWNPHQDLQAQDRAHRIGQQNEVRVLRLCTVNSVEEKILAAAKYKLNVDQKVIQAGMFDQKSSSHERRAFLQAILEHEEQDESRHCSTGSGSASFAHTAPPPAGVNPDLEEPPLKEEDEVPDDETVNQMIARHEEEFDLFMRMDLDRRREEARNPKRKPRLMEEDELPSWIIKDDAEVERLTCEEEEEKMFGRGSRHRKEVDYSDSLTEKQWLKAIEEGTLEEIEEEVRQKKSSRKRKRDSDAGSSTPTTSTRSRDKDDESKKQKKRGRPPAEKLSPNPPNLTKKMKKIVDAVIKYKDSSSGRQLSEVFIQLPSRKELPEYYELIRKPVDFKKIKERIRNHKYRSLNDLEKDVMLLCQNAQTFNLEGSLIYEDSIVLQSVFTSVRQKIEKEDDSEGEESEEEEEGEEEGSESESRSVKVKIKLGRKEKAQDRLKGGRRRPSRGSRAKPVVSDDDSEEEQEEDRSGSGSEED

With “V5-tagged SMARCA4 (from UniProt P51532 1-1647)” the binding [1] was “binds”.

With “HA-tagged KIF20A (kinesin family member 20A) (from UniProt O95235 1-890)” the binding [2] was “binds”.

“endogenous SMARCA4 (from UniProt P51532 1-1647)” was tested, and the binding [3] was “binds”.

From PMC12700555
